Laboratory results from publication doi:10.1101/2025.03.24.644882.

Protein sequences, listed by entry. Tags and fused reporters are not part of them. Residues count along the entry.
UniProt Q9HCU4, residues 32-2923: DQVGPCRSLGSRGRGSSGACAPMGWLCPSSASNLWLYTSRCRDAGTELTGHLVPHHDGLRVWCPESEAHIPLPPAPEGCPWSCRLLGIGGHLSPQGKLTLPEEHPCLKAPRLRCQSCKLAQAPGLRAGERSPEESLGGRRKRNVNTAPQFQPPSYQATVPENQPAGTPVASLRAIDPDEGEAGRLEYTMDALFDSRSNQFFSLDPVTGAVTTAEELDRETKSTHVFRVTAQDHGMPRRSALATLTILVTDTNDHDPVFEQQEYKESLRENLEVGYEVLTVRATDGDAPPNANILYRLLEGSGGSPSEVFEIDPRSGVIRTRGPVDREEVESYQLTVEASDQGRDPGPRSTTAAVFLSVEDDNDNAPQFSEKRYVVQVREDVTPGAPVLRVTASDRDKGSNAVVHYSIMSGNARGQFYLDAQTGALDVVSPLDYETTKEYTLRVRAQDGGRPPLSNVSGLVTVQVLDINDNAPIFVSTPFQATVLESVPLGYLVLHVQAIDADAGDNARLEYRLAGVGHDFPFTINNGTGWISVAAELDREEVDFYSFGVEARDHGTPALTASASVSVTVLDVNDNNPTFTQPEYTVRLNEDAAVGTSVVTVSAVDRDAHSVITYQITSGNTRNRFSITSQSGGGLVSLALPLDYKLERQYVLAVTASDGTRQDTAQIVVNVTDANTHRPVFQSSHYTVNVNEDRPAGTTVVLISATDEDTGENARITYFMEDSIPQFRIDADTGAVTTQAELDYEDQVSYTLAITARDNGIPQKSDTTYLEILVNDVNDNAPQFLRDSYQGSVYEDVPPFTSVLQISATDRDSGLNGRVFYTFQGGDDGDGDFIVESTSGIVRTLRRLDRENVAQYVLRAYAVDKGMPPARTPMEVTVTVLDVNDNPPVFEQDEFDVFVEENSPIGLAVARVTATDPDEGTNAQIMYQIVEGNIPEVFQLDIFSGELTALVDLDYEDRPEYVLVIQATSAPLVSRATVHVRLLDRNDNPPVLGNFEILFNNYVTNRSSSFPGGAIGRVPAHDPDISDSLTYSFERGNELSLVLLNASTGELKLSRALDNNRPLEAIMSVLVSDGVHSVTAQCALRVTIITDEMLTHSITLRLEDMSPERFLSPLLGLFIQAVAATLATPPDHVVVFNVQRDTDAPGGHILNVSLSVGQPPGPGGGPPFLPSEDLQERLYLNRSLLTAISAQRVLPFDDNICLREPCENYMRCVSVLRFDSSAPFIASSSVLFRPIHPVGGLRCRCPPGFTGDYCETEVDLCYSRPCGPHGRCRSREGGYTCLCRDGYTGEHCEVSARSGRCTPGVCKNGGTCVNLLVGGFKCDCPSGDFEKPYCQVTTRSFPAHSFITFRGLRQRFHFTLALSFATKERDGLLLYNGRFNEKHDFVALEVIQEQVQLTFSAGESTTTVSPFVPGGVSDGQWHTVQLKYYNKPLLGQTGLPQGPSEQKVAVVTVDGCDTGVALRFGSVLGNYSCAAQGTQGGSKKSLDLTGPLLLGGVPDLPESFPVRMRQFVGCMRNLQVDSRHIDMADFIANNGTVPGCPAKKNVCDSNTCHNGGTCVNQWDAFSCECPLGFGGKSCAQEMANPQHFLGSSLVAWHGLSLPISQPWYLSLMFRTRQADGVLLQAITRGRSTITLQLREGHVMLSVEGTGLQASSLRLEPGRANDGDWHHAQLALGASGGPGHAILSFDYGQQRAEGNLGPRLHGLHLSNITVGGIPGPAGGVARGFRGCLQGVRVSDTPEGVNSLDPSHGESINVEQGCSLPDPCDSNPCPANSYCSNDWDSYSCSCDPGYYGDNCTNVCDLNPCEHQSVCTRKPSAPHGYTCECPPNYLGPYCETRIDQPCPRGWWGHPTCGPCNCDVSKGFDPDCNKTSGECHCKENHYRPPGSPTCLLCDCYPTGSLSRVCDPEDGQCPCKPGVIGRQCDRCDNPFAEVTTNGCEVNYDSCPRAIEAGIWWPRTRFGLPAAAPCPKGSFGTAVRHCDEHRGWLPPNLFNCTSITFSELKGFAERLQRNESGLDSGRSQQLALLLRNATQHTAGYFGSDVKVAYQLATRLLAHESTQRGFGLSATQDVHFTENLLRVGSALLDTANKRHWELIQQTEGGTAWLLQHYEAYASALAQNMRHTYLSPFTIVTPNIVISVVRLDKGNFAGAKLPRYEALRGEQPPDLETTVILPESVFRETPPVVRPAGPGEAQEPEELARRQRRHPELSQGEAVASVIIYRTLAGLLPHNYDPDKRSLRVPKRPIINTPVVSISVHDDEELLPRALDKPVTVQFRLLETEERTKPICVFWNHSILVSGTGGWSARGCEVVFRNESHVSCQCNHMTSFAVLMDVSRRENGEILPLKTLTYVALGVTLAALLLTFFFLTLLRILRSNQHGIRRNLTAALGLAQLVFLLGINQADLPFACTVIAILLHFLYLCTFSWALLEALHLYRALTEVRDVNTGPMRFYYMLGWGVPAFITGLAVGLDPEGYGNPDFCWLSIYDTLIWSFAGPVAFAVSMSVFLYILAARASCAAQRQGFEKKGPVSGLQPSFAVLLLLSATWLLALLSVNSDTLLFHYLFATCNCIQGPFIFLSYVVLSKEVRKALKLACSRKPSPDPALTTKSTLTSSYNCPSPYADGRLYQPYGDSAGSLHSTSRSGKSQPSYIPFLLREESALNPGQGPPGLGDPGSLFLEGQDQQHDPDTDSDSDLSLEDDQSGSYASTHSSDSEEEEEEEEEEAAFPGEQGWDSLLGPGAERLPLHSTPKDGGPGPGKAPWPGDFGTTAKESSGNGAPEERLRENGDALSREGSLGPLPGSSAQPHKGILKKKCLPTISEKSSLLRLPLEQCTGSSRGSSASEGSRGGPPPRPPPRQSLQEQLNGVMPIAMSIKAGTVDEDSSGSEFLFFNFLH
UniProt P49674: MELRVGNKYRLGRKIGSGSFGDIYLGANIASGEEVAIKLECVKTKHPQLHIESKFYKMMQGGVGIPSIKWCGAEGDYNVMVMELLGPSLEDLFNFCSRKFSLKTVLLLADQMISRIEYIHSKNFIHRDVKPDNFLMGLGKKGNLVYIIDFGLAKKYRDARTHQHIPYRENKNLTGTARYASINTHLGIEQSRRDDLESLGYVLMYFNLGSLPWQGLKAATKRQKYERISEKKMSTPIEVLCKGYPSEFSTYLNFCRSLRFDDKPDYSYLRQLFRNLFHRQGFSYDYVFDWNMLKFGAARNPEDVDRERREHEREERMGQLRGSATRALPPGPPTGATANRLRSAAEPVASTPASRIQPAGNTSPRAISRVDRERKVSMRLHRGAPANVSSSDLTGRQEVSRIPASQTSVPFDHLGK
UniProt Q8N4C8: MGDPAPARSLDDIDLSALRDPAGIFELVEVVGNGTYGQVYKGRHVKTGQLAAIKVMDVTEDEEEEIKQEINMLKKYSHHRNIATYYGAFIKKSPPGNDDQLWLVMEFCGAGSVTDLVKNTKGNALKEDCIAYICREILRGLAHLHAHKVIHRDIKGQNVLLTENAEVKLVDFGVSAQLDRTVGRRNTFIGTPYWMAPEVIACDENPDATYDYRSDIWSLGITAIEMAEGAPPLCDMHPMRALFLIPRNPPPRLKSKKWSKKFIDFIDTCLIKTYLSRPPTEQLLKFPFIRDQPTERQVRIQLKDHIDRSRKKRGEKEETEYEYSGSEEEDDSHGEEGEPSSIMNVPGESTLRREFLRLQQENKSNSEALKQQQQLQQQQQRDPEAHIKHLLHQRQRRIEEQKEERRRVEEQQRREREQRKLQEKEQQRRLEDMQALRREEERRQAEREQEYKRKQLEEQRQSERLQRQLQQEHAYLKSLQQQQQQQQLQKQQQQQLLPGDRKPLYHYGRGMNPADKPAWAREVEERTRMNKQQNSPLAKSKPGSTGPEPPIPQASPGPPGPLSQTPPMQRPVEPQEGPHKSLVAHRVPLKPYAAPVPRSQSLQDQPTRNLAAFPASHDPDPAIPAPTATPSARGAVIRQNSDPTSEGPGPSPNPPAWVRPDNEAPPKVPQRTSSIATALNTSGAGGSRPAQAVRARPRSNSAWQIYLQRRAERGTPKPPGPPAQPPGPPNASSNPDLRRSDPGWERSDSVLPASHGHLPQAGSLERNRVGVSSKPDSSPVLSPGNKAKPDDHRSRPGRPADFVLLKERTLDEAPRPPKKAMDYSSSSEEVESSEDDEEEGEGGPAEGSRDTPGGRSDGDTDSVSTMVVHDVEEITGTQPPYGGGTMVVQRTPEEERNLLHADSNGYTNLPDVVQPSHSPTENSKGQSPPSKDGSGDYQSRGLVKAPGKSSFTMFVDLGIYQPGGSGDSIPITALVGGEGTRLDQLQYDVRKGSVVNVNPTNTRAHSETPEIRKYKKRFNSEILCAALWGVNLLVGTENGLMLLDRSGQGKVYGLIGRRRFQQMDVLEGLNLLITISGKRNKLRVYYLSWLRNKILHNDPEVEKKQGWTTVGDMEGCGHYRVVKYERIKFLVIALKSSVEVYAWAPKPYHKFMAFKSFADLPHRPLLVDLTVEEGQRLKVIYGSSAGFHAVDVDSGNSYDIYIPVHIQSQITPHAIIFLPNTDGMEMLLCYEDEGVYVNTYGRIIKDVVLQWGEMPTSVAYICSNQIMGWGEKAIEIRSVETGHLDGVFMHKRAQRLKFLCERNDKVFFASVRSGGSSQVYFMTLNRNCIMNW
UniProt Q01973, residues 30-937: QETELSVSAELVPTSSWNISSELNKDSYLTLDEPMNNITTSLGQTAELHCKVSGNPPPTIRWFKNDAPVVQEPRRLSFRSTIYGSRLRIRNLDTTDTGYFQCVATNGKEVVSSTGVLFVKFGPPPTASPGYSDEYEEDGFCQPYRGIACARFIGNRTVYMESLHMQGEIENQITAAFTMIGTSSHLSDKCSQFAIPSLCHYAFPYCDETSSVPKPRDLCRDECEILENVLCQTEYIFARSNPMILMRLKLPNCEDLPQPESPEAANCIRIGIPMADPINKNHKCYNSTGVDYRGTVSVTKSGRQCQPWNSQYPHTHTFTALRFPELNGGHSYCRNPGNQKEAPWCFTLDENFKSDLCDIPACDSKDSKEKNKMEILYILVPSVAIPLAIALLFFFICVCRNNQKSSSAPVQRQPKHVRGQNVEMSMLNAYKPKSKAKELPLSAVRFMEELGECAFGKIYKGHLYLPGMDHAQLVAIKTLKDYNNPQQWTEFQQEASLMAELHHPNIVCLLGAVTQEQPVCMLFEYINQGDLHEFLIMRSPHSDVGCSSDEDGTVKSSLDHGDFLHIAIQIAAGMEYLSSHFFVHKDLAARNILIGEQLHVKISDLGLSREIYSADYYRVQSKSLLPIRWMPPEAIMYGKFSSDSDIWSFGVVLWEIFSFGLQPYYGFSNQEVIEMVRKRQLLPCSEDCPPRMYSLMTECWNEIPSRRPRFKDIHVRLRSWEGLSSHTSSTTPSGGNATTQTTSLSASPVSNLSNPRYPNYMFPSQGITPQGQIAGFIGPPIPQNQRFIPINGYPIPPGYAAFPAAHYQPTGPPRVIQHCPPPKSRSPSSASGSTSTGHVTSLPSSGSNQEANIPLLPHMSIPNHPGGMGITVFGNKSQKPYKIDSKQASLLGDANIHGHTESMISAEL
UniProt Q01974, residues 34-943: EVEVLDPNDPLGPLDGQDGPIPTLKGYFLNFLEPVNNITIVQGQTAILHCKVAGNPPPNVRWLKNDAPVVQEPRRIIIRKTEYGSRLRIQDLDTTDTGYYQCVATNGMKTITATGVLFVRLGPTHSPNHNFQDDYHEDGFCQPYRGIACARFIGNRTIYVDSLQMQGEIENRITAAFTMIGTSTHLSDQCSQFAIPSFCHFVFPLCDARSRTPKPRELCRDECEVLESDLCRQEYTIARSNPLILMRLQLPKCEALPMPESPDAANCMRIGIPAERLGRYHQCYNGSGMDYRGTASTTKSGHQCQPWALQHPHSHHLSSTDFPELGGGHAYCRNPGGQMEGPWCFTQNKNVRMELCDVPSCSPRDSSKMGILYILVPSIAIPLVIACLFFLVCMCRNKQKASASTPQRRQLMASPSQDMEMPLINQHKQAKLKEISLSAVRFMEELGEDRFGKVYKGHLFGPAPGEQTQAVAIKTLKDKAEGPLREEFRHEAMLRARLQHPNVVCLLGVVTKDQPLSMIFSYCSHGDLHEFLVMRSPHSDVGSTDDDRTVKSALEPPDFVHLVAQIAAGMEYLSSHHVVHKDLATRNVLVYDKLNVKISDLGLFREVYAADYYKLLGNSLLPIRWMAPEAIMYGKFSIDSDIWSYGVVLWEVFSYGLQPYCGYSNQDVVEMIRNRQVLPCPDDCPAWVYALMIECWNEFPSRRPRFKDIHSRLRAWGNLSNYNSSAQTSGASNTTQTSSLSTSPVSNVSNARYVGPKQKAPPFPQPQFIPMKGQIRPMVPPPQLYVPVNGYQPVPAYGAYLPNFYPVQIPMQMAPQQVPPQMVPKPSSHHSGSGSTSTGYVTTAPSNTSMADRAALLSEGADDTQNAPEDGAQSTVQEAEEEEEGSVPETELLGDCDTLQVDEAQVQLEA

B1: VANGL1 (Van Gogh-like 1), endogenous (protein, UniProt Q8TAA9 1-524)
chain: MDTESTYSGYSYYSSHSKKSHRQGERTRERHKSPRNKDGRGSEKSVTIQPPTGEPLLGNDSTRTEEVQDDNWGETTTAITGTSEHSISQEDIARISKDMEDSVGLDCKRYLGLTVASFLGLLVFLTPIAFILLPPILWRDELEPCGTICEGLFISMAFKLLILLIGTWALFFRKRRADMPRVFVFRALLLVLIFLFVVSYWLFYGVRILDSRDRNYQGIVQYAVSLVDALLFIHYLAIVLLELRQLQPMFTLQVVRSTDGESRFYSLGHLSIQRAALVVLENYYKDFTIYNPNLLTASKFRAAKHMAGLKVYNVDGPSNNATGQSRAMIAAAARRRDSSHNELYYEEAEHERRVKKRKARLVVAVEEAFIHIQRLQAEEQQKAPGEVMDPREAAQAIFPSMARALQKYLRITRQQNYHSMESILQHLAFCITNGMTPKAFLERYLSAGPTLQYDKDRWLSTQWRLVSDEAVTNGLRDGIVFVLKCLDFSLVVNVKKIPFIILSEEFIDPKSHKFVLRLQSETSV
B2: SRCIN1 (SNAP-25-Interacting Protein), endogenous (protein, UniProt Q9C0H9 1-1183)
chain: MGNAPSQDPERSSPPMLSADDAEYPREYRTLGGGGGGGSGGRRFSNVGLVHTSERRHTVIAAQSLEALSGLQKADADRKRDAFMDHLKSKYPQHALALRGQQDRMREQPNYWSFKTRSSRHTQGAQPGLADQAAKLSYASAESLETMSEAELPLGFSRMNRFRQSLPLSRSASQTKLRSPGVLFLQFGEETRRVHITHEVSSLDTLHALIAHMFPQKLTMGMLKSPNTAILIKDEARNVFYELEDVRDIQDRSIIKIYRKEPLYAAFPGSHLTNGDLRREMVYASRESSPTRRLNNLSPAPHLASGSPPPGLPSGLPSGLQSGSPSRSRLSYAGGRPPSYAGSPVHHAAERLGGAPAAQGVSPSPSAILERRDVKPDEDLASKAGGMVLVKGEGLYADPYGLLHEGRLSLAAAAGDPFAYPGAGGLYKRGSVRSLSTYSAAALQSDLEDSLYKAAGGGGPLYGDGYGFRLPPSSPQKLADVAAPPGGPPPPHSPYSGPPSRGSPVRQSFRKDSGSSSVFAESPGGKTRSAGSASTAGAPPSELFPGPGERSLVGFGPPVPAKDTETRERMEAMEKQIASLTGLVQSALLRGSEPETPSEKIEGSNGAATPSAPCGSGGRSSGATPVSGPPPPSASSTPAGQPTAVSRLQMQLHLRGLQNSASDLRGQLQQLRKLQLQNQESVRALLKRTEAELSMRVSEAARRQEDPLQRQRTLVEEERLRYLNDEELITQQLNDLEKSVEKIQRDVSHNHRLVPGPELEEKALVLKQLGETLTELKAHFPGLQSKMRVVLRVEVEAVKFLKEEPQRLDGLLKRCRGVTDTLAQIRRQVDEGVWPPPNNLLSQSPKKVTAETDFNKSVDFEMPPPSPPLNLHELSGPAEGASLTPKGGNPTKGLDTPGKRSVDKAVSVEAAERDWEEKRAALTQYSAKDINRLLEETQAELLKAIPDLDCASKAHPGPAPTPDHKPPKAPHGQKAAPRTEPSGRRGSDELTVPRYRTEKPSKSPPPPPPRRSFPSSHGLTTTRTGEVVVTSKKDSAFIKKAESEELEVQKPQVKLRRAVSEVARPASTPPIMASAIKDEDDEDRIIAELESGGGSVPPMKVVTPGASRLKAAQGQAGSPDKSKHGKQRAEYMRIQAQQQATKPSKEMSGSNETSSPVSEKPSASRTSIPVLTSFGARNSSISF
B3: Frizzled 3 (FZD3), endogenous (receptor, UniProt Q9NPG1 23-666)
chain: HSLFSCEPITLRMCQDLPYNTTFMPNLLNHYDQQTAALAMEPFHPMVNLDCSRDFRPFLCALYAPICMEYGRVTLPCRRLCQRAYSECSKLMEMFGVPWPEDMECSRFPDCDEPYPRLVDLNLAGEPTEGAPVAVQRDYGFWCPRELKIDPDLGYSFLHVRDCSPPCPNMYFRREELSFARYFIGLISIICLSATLFTFLTFLIDVTRFRYPERPIIFYAVCYMMVSLIFFIGFLLEDRVACNASIPAQYKASTVTQGSHNKACTMLFMILYFFTMAGSVWWVILTITWFLAAVPKWGSEAIEKKALLFHASAWGIPGTLTIILLAMNKIEGDNISGVCFVGLYDVDALRYFVLAPLCLYVVVGVSLLLAGIISLNRVRIEIPLEKENQDKLVKFMIRIGVFSILYLVPLLVVIGCYFYEQAYRGIWETTWIQERCREYHIPCPYQVTQMSRPDLILFLMKYLMALIVGIPSVFWVGSKKTCFEWASFFHGRRKKEIVNESRQVLQEPDFAQSLLRDPNTPIIRKSRGTSTQGTSTHASSTQLAMVDDQRSKAGSIHSKVSSYHGSLHRSRDGRYTPCSYRGMEERLPHGSMSRLTDHSRHSSSHRLNEQSRHSSIRDLSNNPMTHITHGTSMNRVIEEDGTSA

Columns and labels:
Test in all cases: proximity labelling
[1] = biological target: T1, PRICKLE3 fused N-terminally with miniTurboID and the V5 tag (human) (UniProt O43900)
T1 sequence: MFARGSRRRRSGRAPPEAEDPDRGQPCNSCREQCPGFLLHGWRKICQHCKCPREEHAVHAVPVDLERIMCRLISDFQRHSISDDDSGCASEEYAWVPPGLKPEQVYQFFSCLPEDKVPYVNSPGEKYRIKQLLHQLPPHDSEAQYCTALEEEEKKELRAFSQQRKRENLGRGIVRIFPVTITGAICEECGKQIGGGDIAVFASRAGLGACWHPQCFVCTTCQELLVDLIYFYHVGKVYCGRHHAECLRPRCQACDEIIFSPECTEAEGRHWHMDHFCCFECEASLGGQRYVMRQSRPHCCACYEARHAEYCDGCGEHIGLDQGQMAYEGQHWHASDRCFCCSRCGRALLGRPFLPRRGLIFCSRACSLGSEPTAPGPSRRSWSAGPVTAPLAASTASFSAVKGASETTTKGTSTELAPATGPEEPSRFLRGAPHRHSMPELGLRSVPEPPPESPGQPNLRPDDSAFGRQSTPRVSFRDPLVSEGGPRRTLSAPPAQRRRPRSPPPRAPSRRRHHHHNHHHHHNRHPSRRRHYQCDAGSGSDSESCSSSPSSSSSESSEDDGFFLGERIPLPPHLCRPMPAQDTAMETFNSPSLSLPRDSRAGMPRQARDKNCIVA

[2] = biological target: T2, PRICKLE1 fused N-terminally with miniTurboID and the V5 tag (human) (UniProt Q96MT3)
T2 sequence: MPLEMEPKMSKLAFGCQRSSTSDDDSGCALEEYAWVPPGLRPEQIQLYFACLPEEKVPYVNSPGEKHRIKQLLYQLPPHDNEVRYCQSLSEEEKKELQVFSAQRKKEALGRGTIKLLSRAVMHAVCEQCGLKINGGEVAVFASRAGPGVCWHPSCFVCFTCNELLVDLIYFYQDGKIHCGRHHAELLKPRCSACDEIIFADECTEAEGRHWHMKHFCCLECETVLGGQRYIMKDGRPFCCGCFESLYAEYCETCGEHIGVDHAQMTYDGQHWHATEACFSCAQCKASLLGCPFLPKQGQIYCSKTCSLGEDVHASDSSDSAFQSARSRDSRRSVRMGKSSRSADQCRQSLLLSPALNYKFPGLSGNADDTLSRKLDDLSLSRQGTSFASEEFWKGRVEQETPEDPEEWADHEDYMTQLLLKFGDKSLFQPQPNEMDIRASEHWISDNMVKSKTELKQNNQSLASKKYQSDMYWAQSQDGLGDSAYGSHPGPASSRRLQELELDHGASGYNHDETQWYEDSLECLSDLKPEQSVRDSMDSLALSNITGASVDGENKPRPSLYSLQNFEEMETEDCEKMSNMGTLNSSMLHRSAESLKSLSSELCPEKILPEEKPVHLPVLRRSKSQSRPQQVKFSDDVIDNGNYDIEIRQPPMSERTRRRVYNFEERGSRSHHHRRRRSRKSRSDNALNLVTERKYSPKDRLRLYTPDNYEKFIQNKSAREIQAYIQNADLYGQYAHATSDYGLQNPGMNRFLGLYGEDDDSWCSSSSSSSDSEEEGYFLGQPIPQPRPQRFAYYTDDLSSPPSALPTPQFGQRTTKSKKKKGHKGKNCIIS

[3] = biological target: T3, PRICKLE2 fused N-terminally with miniTurboID and the V5 tag (human) (UniProt Q7Z3G6)
T3 sequence: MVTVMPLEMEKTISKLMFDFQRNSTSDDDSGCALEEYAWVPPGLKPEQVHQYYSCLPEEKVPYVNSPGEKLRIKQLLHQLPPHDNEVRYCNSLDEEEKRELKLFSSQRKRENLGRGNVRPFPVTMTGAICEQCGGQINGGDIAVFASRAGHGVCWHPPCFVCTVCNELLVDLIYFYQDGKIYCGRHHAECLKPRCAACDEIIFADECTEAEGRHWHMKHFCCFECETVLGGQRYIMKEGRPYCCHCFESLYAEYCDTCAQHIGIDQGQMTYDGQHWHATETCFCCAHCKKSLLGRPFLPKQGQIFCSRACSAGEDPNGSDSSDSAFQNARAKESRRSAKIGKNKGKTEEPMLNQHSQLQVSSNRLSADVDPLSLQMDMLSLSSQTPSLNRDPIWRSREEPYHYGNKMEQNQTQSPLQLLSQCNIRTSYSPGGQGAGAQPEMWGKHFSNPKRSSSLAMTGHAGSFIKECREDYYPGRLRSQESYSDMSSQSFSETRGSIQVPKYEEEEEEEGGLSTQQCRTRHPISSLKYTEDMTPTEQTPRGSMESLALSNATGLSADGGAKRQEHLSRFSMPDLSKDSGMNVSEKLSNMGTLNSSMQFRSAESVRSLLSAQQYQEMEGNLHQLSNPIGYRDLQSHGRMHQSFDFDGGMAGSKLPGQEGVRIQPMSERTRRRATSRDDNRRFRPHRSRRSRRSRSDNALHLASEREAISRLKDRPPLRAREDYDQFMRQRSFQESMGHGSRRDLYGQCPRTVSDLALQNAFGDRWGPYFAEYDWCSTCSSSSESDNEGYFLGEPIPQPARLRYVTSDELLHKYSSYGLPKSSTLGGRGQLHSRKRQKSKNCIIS

[4] = biological target: T1, PRICKLE3 fused N-terminally with miniTurboID and the V5 tag (human); remark: listed apart in the source

Row | Molecule | binding [1] | binding [2] | binding [3] | binding [4]
1 | Cadherin EGF LAG Seven-Pass G-Type Receptor 1 (CELSR1), endogenous (from UniProt Q9NYQ6 21-3014) | binds | – | – | –
2 | Cadherin EGF LAG Seven-Pass G-Type Receptor 2 (CELSR2), endogenous (from UniProt Q9HCU4 32-2923) | binds | – | – | –
3 | Casein kinase 1 ε (CK1ε), endogenous (from UniProt P49674 1-416) (enzyme) | binds | binds | binds | –
4 | Kinesin-like protein KIF26B, endogenous (from UniProt Q2KJY2 1-2108) | binds | – | – | –
5 | Misshapen-like kinase 1, endogenous (from UniProt Q8N4C8 1-1332) (enzyme) | binds | binds | binds | –
6 | Receptor tyrosine Kinase-like Orphan Receptor 1 (ROR1), endogenous (from UniProt Q01973 30-937) | binds | – | – | –
7 | Receptor tyrosine Kinase-like Orphan Receptor 2 (ROR2), endogenous (from UniProt Q01974 34-943) | binds | – | – | –
8 | B1 | – | – | – | binds
9 | B2 | – | – | – | binds
10 | B3 | – | – | – | binds

Where two headings read alike, the source gives them in different places. These are yes or no findings as the source states them, for the method shown. Binding seen in cells or lysates may run through a third protein. A yes stands for co-enrichment or nearness to the bait. Other partners may have been found. Sequences can lack the tags named with a protein.
